From US8124583B2, “Composition and method for self-assembly and mineralization of peptide-amphiphiles” (Northwestern University, priority 2002, dated 2012)

Assay: Self assembly with CaCl2 and hydroxyapatite mineralization of nanofiber gel (TEM, electron diffraction)
Assay type: physicochemical
Experimental: A liquid composition for the self assembly of (1) and mineralization of hydroxyapatite was prepared by dissolving […] NaH2PO4 (Aldrich) into 200 microliters of (1) at a concentration of 10 mg/ml in water. The pH of the solution was adjusted to 7.7.
The liquid composition containing (1) and NaH2PO4 was mixed with 40 micromoles of CaCl2 (Aldrich).
Samples of the gel after 2 hours, 1 day, and 5 days were mounted on carbon-coated TEM grids. TEM studies of the 1 and 5 day samples show a multi-crystalline material composed of plate like crystals˜5 nm thick and 50 to 100 nm long. The plate like crystals were similar to those observed in the mineralization experiments on the pre-assembled template.

## C15H31C(O)-CCCCGGGS(P)RGD-COOH (CCCCGGGSRGD; N-terminal palmitoyl; phosphoserine) [PA 18]
1 and 5 day gel samples
  thickness of plate like crystals (TEM): ~5 nm
Mineralized gel
  electron diffraction of the mineralized material: matches the diffraction pattern for hydroxyapatite
